Test results from publication doi:10.1101/2024.02.21.581356.
These are yes or no findings as the source states them, for the method shown. In cells and extracts the contact can be indirect. Some results given as binding are weak or reduced against the parent protein; the word gives no strength. For part of these data: Tags and fused reporters may be left off the sequences shown.

How the values were obtained:
Assay in all cases: co-IP
Conditions in all cases: remark: other sources report otherwise
[1] = molecular target: V5-RIP3 WT expressed in RIP3-KO L929 cells (mouse), Q9QZL0
[2] = molecular target: V5-RIP3 WT (mouse), Q9QZL0
[3] = molecular target: T1, Flag-RIP1 (mouse), Q60855
T1 chain: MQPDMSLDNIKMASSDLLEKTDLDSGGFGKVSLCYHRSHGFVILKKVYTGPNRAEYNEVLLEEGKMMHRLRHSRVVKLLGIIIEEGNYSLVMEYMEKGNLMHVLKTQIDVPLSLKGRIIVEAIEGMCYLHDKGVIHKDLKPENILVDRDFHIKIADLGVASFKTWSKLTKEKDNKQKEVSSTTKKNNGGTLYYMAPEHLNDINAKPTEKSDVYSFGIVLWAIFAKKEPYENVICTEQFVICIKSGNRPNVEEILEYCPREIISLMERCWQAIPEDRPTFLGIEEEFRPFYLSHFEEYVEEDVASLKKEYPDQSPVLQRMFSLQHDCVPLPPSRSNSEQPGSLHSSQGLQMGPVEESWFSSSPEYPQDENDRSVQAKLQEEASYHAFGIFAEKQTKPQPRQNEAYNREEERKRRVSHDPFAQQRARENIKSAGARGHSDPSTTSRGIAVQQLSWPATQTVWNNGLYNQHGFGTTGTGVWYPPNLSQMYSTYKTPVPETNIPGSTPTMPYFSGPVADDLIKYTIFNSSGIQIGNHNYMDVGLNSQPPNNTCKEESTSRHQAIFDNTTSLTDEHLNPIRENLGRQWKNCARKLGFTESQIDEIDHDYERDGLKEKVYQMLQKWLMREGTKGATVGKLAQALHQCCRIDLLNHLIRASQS

B1: RIP1, endogenous in L929 cells, Q60855 1-656 (protein)
chain: MQPDMSLDNIKMASSDLLEKTDLDSGGFGKVSLCYHRSHGFVILKKVYTGPNRAEYNEVLLEEGKMMHRLRHSRVVKLLGIIIEEGNYSLVMEYMEKGNLMHVLKTQIDVPLSLKGRIIVEAIEGMCYLHDKGVIHKDLKPENILVDRDFHIKIADLGVASFKTWSKLTKEKDNKQKEVSSTTKKNNGGTLYYMAPEHLNDINAKPTEKSDVYSFGIVLWAIFAKKEPYENVICTEQFVICIKSGNRPNVEEILEYCPREIISLMERCWQAIPEDRPTFLGIEEEFRPFYLSHFEEYVEEDVASLKKEYPDQSPVLQRMFSLQHDCVPLPPSRSNSEQPGSLHSSQGLQMGPVEESWFSSSPEYPQDENDRSVQAKLQEEASYHAFGIFAEKQTKPQPRQNEAYNREEERKRRVSHDPFAQQRARENIKSAGARGHSDPSTTSRGIAVQQLSWPATQTVWNNGLYNQHGFGTTGTGVWYPPNLSQMYSTYKTPVPETNIPGSTPTMPYFSGPVADDLIKYTIFNSSGIQIGNHNYMDVGLNSQPPNNTCKEESTSRHQAIFDNTTSLTDEHLNPIRENLGRQWKNCARKLGFTESQIDEIDHDYERDGLKEKVYQMLQKWLMREGTKGATVGKLAQALHQCCRIDLLNHLIRASQS
binding [1]: binds

B2: Flag-RIP1, Q60855 1-656 (protein)
chain: MQPDMSLDNIKMASSDLLEKTDLDSGGFGKVSLCYHRSHGFVILKKVYTGPNRAEYNEVLLEEGKMMHRLRHSRVVKLLGIIIEEGNYSLVMEYMEKGNLMHVLKTQIDVPLSLKGRIIVEAIEGMCYLHDKGVIHKDLKPENILVDRDFHIKIADLGVASFKTWSKLTKEKDNKQKEVSSTTKKNNGGTLYYMAPEHLNDINAKPTEKSDVYSFGIVLWAIFAKKEPYENVICTEQFVICIKSGNRPNVEEILEYCPREIISLMERCWQAIPEDRPTFLGIEEEFRPFYLSHFEEYVEEDVASLKKEYPDQSPVLQRMFSLQHDCVPLPPSRSNSEQPGSLHSSQGLQMGPVEESWFSSSPEYPQDENDRSVQAKLQEEASYHAFGIFAEKQTKPQPRQNEAYNREEERKRRVSHDPFAQQRARENIKSAGARGHSDPSTTSRGIAVQQLSWPATQTVWNNGLYNQHGFGTTGTGVWYPPNLSQMYSTYKTPVPETNIPGSTPTMPYFSGPVADDLIKYTIFNSSGIQIGNHNYMDVGLNSQPPNNTCKEESTSRHQAIFDNTTSLTDEHLNPIRENLGRQWKNCARKLGFTESQIDEIDHDYERDGLKEKVYQMLQKWLMREGTKGATVGKLAQALHQCCRIDLLNHLIRASQS
binding [2]: binds

B3: V5-RIP3 WT, Q9QZL0 1-486 (protein)
chain: MSSVKLWPTGASAVPLVSREELKKLEFVGKGGFGVVFRAHHRTWNHDVAVKIVNSKKISWEVKAMVNLRNENVLLLLGVTEDLQWDFVSGQALVTRFMENGSLAGLLQPECPRPWPLLCRLLQEVVLGMCYLHSLNPPLLHRDLKPSNILLDPELHAKLADFGLSTFQGGSQSGSGSGSGSRDSGGTLAYLDPELLFDVNLKASKASDVYSFGILVWAVLAGREAELVDKTSLIRETVCDRQSRPPLTELPPGSPETPGLEKLKELMIHCWGSQSENRPSFQDCEPKTNEVYNLVKDKVDAAVSEVKHYLSQHRSSGRNLSAREPSQRGTEMDCPRETMVSKMLDRLHLEEPSGPVPGKCPERQAQDTSVGPATPARTSSDPVAGTPQIPHTLPFRGTTPGPVFTETPGPHPQRNQGDGRHGTPWYPWTPPNPMTGPPALVFNNCSEVQIGNYNSLVAPPRTTASSSAKYDQAQFGRGRGWQPFHK
binding [3]: binds
